This data set in a line: peptide made by a vendor (peptide synthesis; N-hydroxysuccinimide). Particulars: conjugation step.

Take “CSNLSTCVLGKLSQELHKLQTYPRTNTGSGTP (SEQ ID NO: 1)”: for the setting “UV 280 nm”, the “final HPLC purity” value is reported as 99%. The conjugation yield (molar yield) was found to be 44%.

The record behind these values is patent US12239713B2 (NOF CORPORATION, priority 2018, dated 2025).
